PubChem BioAssay AID1053208 – Peter MacCallum Cancer Centre – 2014
This is an unselected part of about 17,000 reagents. 788 of all reagents (4.7%) count as active. 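Calls rest on z-score classes alone; an extra cut-off of viability at most 70% of control was not applied to them.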 Entries without a mark were called inactive. Further read-outs or replicates are left out here.

Test: 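Genes whose silencing cuts survival of bone tumour cells only with doxorubicin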 (primary screen)
System: mouse osteosarcoma cells, early-passage culture from an engineered mouse model of fibroblastic bone tumour
Reagents: siRNA pool against mouse genes, 40 nM
Timing: about 120 h (48 h before drug, then 72 h with drug)
Conditions: doxorubicin 100 nM for 72 h, roughly 30-40% inhibitory dose
Measurement: 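Luminescent ATP signal taken as viability with or without 100 nM doxorubicin for 72 h; mean of two wells set against non-targeting siRNA and turned into robust z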
Scale: viability z-score with doxorubicin: higher = more viable cells under doxorubicin; viability z-score without drug: higher = more viable cells with knock-down alone
Rule for the call: 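a pool counts as active when its viability z-score with doxorubicin is -2 or below and its z-score without drug lies between -2 and 2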

The first 2 records as a preview:
gene knocked down	combined z-score class	viability z-score with doxorubicin	viability z-score without drug
Pros1 (GeneID 19128)	no change with or without drug	1.69	-0.17
Rasd1 (GeneID 19416)	no change with or without drug	0.34	0.67

Results, from the first entry:
gene knocked down	combined z-score class	viability z-score with doxorubicin	viability z-score without drug
Pros1 (GeneID 19128)	no change with or without drug	1.69	-0.17
Rasd1 (GeneID 19416)	no change with or without drug	0.34	0.67
Card10 (GeneID 105844)	no change with or without drug	-0.67	-0.51
Tfg (GeneID 21787)	no change with or without drug	0	0.51
Ptk2 (GeneID 14083)	no change with or without drug	0	-1.52
Esrp2 (GeneID 77411)	no change with or without drug	0	-0.84
Myl12a (GeneID 67268)	no change with or without drug	0.45	0
Paxip1 (GeneID 55982)	no change with or without drug	-1.12	-1.01
Rpl23a (GeneID 268449)	low cell count with and without drug	-5.85	-9.11
Tmem178 (GeneID 68027)	no change with or without drug	0.56	0.67
Uqcr10 (GeneID 66152)	low cell count without drug only	0.34	-2.19
Iscu (GeneID 66383)	low cell count with and without drug	-4.05	-4.22
Plekhg3 (GeneID 263406)	high cell count with and without drug	3.48	2.53
Mfng (GeneID 17305)	no change with or without drug	1.12	0.84
Klhl20 (GeneID 226541)	no change with or without drug	0.67	0.51
Rec8 (GeneID 56739)	no change with or without drug	-0.67	-0.17
Il11ra1 (GeneID 16157)	no change with or without drug	0.45	0.51
Grin1 (GeneID 14810)	no change with or without drug	-0.9	-0.34
Stx16 (GeneID 228960)	no change with or without drug	-1.01	-1.35
Cfap20dc (GeneID 74430)	no change with or without drug	-0.67	1.18
Crlf1 (GeneID 12931)	no change with or without drug	-1.46	-0.17
Zfand5 (GeneID 22682)	low cell count with doxorubicin only (active)	-2.47	-1.01
Cd33 (GeneID 12489)	no change with or without drug	0.9	1.69
Fbxw5 (GeneID 30839)	no change with or without drug	-0.9	0.17
Nmbr (GeneID 18101)	no change with or without drug	0.79	1.69
Jun (GeneID 16476)	no change with or without drug	-1.12	0.17
Cfap69 (GeneID 207686)	no change with or without drug	-1.12	-0.34
Bhlhe23 (GeneID 140489)	no change with or without drug	0.34	-0.17
Pkhd1l1 (GeneID 192190)	no change with or without drug	-1.8	-0.17
Ptpn22 (GeneID 19260)	no change with or without drug	-0.22	-1.18
Hrh3 (GeneID 99296)	no change with or without drug	-0.11	-1.35
Cebpz (GeneID 12607)	no change with or without drug	-0.22	-1.52
Ppp2r3c (GeneID 59032)	no change with or without drug	-1.01	0.84
Sh2b1 (GeneID 20399)	no change with or without drug	-1.46	-1.18
Slc12a3 (GeneID 20497)	no change with or without drug	0.22	-0.34
Or7a41 (GeneID 18357)	no change with or without drug	-0.45	-1.85
Rrbp1 (GeneID 81910)	no change with or without drug	-0.45	0.67
Myo1f (GeneID 17916)	no change with or without drug	0.67	-1.01
Arhgef17 (GeneID 207212)	no change with or without drug	0	1.52
Commd4 (GeneID 66199)	no change with or without drug	1.35	1.18
Abhd6 (GeneID 66082)	no change with or without drug	0.67	-0.17
Zfp729a (GeneID 212281)	no change with or without drug	0.34	1.18
Vps41 (GeneID 218035)	no change with or without drug	-0.11	1.35
Nlgn3 (GeneID 245537)	no change with or without drug	0	0
AI593442 (GeneID 330941)	no change with or without drug	0	0.17
Plod3 (GeneID 26433)	no change with or without drug	-0.45	-1.52
Ensa (GeneID 56205)	no change with or without drug	0.45	-0.17
Gdf10 (GeneID 14560)	no change with or without drug	-0.22	-0.51
Tmem38b (GeneID 52076)	no change with or without drug	1.12	-0.17
Cbln3 (GeneID 56410)	no change with or without drug	-0.67	0.51
